Reference: PubChem BioAssay AID2685 (National Center for Advancing Translational Sciences (NCATS), 2010)
Some of the results follow. The main result of the screen is listed elsewhere. These columns were measured beside it and carry no call. The list favours compounds with an active or inconclusive main result. Potencies come from curve fits of mixed quality, noted in brackets.

Assay: qHTS Assay for Lipid Storage Modulators in Drosophila S3 Cells;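 as to cell number change: cells counted by Cell Tracker Red CMTPX staining in the red channel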
Conditions: BODIPY lipid droplet fluorescence, 18-24 h; for cell number change: measured here: cell count max response, cells fed with added oleic acid
In short: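 Drosophila S3 cells got compounds at several concentrations plus oleic acid (400 uM solution). Laser-scanning cytometry with 488 nm excitation read lipid droplets at 500-530 nm and cells at 575-640 nm. Percent activity was relative to 20 uM Triacsin C.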

[1] = measured here: cell number channel AC50, cells fed with added oleic acid
[2] = measured here: lipid fluorescence (Fed channel) AC50, cells fed with added oleic acid

| Structure (SMILES) | cell number change | AC50 [1] | AC50 [2] |
| --- | --- | --- | --- |
| Cc1cccc(NC(=O)c2cc(S(=O)(=O)N3CCc4ccccc43)cn2C)c1C | 72.9% | 29.1 µM [rising, single point] |  |
| S=C1NC(c2ccccc2)N2C(=S)NC(c3ccccc3)N12 (stereo not drawn) | -1.65% |  |  |
| CCCCCCc1nc(C(N)=O)c2[nH]c(=O)n(-c3ccc(OCC)cc3)c2n1 |  |  | 6.51 µM [falling, single point] |
| COc1cccc(C(=O)NCCCNC(=O)c2cccnc2)c1 | 12.8% |  | 6.51 µM [rising, single point] |
| Cn1c(=O)c2c(nc(N/N=C/c3cccs3)n2Cc2ccc(Br)cc2)n(C)c1=O |  | 4.11 µM [rising, partial curve] | 7.31 µM [rising, single point] |
| Cc1c(C(=O)NC(C)CN2CCCCC2)oc2ccccc12 (stereo not drawn) | -6.05% |  | 29.1 µM [falling, single point] |
| CC(C)CCNC(=O)c1ccc2c(SCC(=O)O)c3c(nc2c1)CCCC3 | -31.4% | 32.6 µM [falling, single point] | 29.1 µM [falling, single point] |
| Cc1cc(C)nc(SCNC(=O)c2ccc(F)cc2)n1 | -0.891% |  |  |
| O=[N+]([O-])c1ccccc1Oc1ccc(C(F)(F)F)cn1 | 10.5% |  | 0.731 µM [falling, full curve, poor fit] |
| CN(CC(=O)Nc1ccccc1Cl)C(=O)COC(=O)Cc1c(F)cccc1Cl | 75.7% | 29.1 µM [rising, single point] | 3.26 µM [falling, partial curve, poor fit] |
| COCCN1CC(=O)N(c2cccc(C)c2C)C(c2ccc(Cl)cc2)C1=O (stereo not drawn) | 5.75% |  | 0.13 µM [falling, full curve] |
| CNS(=O)(=O)c1cccc(C(=O)NCC2(N3CCCCC3)CCCCC2)c1 | 30.8% |  |  |
| Cc1ccc(NC(=O)COc2ccccc2C(=O)NCCN(C)C)cc1 |  |  | 6.51 µM [falling, single point] |
| CCOc1ccc(C2=NNC(c3cccs3)=Nc3ccc(OC)cc32)cc1OCC | -30.9% | 29.1 µM [falling, single point] | 29.1 µM [falling, single point] |
| Cc1cccc2sc(NC(=O)c3cccc(S(=O)(=O)N4CCc5ccccc54)c3)nc12 | 18.5% | 0.0517 µM [rising, full curve, poor fit] | 18.4 µM [rising, single point] |
| CC(C)c1nnc(NC(=O)CCC(=O)NC2CCCCCCC2)s1 | -33.2% | 1.84 µM [falling, partial curve] |  |
| CC(C)(C)c1ccc(-c2noc(-c3ccc4c(c3)CCO4)n2)cc1 | 5.3% |  | 20.6 µM [rising, partial curve] |
| Cc1ccc(C)c(NC(=O)C(CC(=O)O)Cc2ccccc2)c1 (stereo not drawn) | -2.36% |  | 29.1 µM [falling, single point] |
| CCOC(=O)C1=C(C)NC(=O)NC1c1ccc(OC)c(CN2CCOCC2)c1 (stereo not drawn) | -83.6% | 23.1 µM [falling, partial curve, poor fit] | 23.1 µM [falling, partial curve] |
| CS(=O)(=O)N(CCC#N)Cc1ccc(/C=C2\C(=O)Nc3ccccc32)o1 | -40.3% | 18.4 µM [falling, single point] | 29.1 µM [falling, single point] |
| C/C(=N\NC(=O)c1c[nH]c2ccccc12)c1ccco1 | 109% | 29.1 µM [rising, single point] | 6.51 µM [rising, single point] |
| C=CCn1c(SCC(=O)Nc2c(C)n(C)n(-c3ccccc3)c2=O)nc2sc(C)c(-c3ccccc3)c2c1=O | -12.6% |  |  |
| CN1CCN(c2ccc(NC(=O)c3ccc(Br)o3)cc2)CC1 | 1.39% |  | 0.13 µM [rising, full curve, poor fit] |
| Cc1cc(Br)ccc1NC(=O)CCN1C(=O)c2ccncc2C1=O |  | 1.64 µM [rising, partial curve] | 1.16 µM [rising, partial curve] |
| N#Cc1ccc(-c2ccc(C3Nc4ccccc4C(=O)N3O)o2)cc1 (stereo not drawn) | -0.226% |  |  |
| CCOC(=O)CCc1c(C)c(C#N)c2[nH]c3ccccc3n2c1=O | -11% |  | 0.103 µM [rising, full curve, poor fit] |
| NC(=O)Cn1cc(/C=N/NC(=O)c2ccc(Cn3cc(Cl)cn3)o2)c(-c2ccccc2)n1 | -14.2% |  | 29.1 µM [rising, single point] |
| COc1cc(-c2noc(C3CCCN(C(=O)c4ccccc4)C3)n2)cc(OC)c1OC (stereo not drawn) | -24.9% |  | 25.9 µM [falling, single point] |
| C=CCNC(=S)NS(=O)(=O)c1cccs1 | 19.8% |  | 0.731 µM [rising, single point] |

5 entries from above, arranged by formula weight, low to high:

| Structure (SMILES) | cell number change | AC50 [1] | AC50 [2] |
| --- | --- | --- | --- |
| O=[N+]([O-])c1ccccc1Oc1ccc(C(F)(F)F)cn1 | 10.5% |  | 0.731 µM [falling, full curve, poor fit] |
| Cc1cc(C)nc(SCNC(=O)c2ccc(F)cc2)n1 | -0.891% |  |  |
| Cc1c(C(=O)NC(C)CN2CCCCC2)oc2ccccc12 (stereo not drawn) | -6.05% |  | 29.1 µM [falling, single point] |
| Cc1ccc(C)c(NC(=O)C(CC(=O)O)Cc2ccccc2)c1 (stereo not drawn) | -2.36% |  | 29.1 µM [falling, single point] |
| Cc1cccc2sc(NC(=O)c3cccc(S(=O)(=O)N4CCc5ccccc54)c3)nc12 | 18.5% | 0.0517 µM [rising, full curve, poor fit] | 18.4 µM [rising, single point] |
